Reference: PubChem BioAssay AID1224830 (NIAID, 2016)
Aim: 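Host factors that control LPS-induced TNF expression in human macrophages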 (primary screen). Cell system: human THP-1 monocytic leukaemia cells, TNF dual-luciferase reporter clone, PMA-differentiated to macrophage-like cells. Knock-down reagent: siRNA pool against human genes, 50 nM. Timing: LPS for 4 h, given about 3 days after siRNA transfection. Treatment: bacterial LPS (TLR4 ligand), 10 ng/ml. Detection: 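TNF firefly reporter luminescence divided by renilla, normalised to the plate median, then turned into a robust z-score for each replicate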. Reading the numbers: TNF reporter robust z-score: higher = stronger TNF reporter response to LPS. Active means: 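Each well counts as active if its z-score is over 2.8 or under -1.5; controls are left without a call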.
The deposit covers about 18,000 reagents; this is a random part of them. In the full data, about 2,900 (16%) are marked active. 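Calls are made per well; low scores hint the gene aids the LPS response, high scores that it dampens it.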 Repeated entries: four replicate wells of each siRNA pool.

What did the screen give for CLTB?
TNF reporter robust z-score: 0.42; Outcome: inactive

With CLTB, what does the deposit list?
TNF reporter robust z-score: 0.22; Outcome: inactive

With CLTB, what was measured?
TNF reporter robust z-score: 0.6; Outcome: inactive

With CLTB, what does the deposit list?
TNF reporter robust z-score: 0.04; Outcome: inactive

For ABITRAM, what does the deposit list?
TNF reporter robust z-score: 0.97; Outcome: inactive

What did the screen give for ABITRAM?
TNF reporter robust z-score: 0.71; Outcome: inactive

What is on record for ABITRAM?
TNF reporter robust z-score: 1.48; Outcome: inactive

With ABITRAM, what does the deposit list?
TNF reporter robust z-score: 1.1; Outcome: inactive

For USHBP1, how do the results read?
TNF reporter robust z-score: 0.83; Outcome: inactive

With USHBP1, what was measured?
TNF reporter robust z-score: 1.2; Outcome: inactive

What is on record for USHBP1?
TNF reporter robust z-score: 0.9; Outcome: inactive

What is on record for USHBP1?
TNF reporter robust z-score: -0.4; Outcome: inactive

For HPD, what does the deposit list?
TNF reporter robust z-score: -1.35; Outcome: inactive

With HPD, what does the deposit list?
TNF reporter robust z-score: -0.87; Outcome: inactive

What is on record for HPD?
TNF reporter robust z-score: -0.78; Outcome: inactive

With HPD, what does the deposit list?
TNF reporter robust z-score: -0.94; Outcome: inactive

For PARD6B, what was measured?
TNF reporter robust z-score: -0.17; Outcome: inactive

For PARD6B, how do the results read?
TNF reporter robust z-score: 0.37; Outcome: inactive

What did the screen give for PARD6B?
TNF reporter robust z-score: 0.22; Outcome: inactive

What is on record for PARD6B?
TNF reporter robust z-score: 0.78; Outcome: inactive

What did the screen give for CSNK1A1L?
TNF reporter robust z-score: 0.79; Outcome: inactive

With CSNK1A1L, how do the results read?
TNF reporter robust z-score: 1.69; Outcome: inactive

Which result is listed for CSNK1A1L?
TNF reporter robust z-score: -1.17; Outcome: inactive

For CSNK1A1L, what was measured?
TNF reporter robust z-score: 2.46; Outcome: inactive

For TAS1R2, what does the deposit list?
TNF reporter robust z-score: -1.33; Outcome: inactive

For TAS1R2, what does the deposit list?
TNF reporter robust z-score: -2.1; Outcome: active

For TAS1R2, what does the deposit list?
TNF reporter robust z-score: -1.89; Outcome: active

For TAS1R2, what was measured?
TNF reporter robust z-score: -1.76; Outcome: active

What is on record for B3GALT5?
TNF reporter robust z-score: -0.38; Outcome: inactive

What did the screen give for B3GALT5?
TNF reporter robust z-score: 0.09; Outcome: inactive

What is on record for B3GALT5?
TNF reporter robust z-score: -0.28; Outcome: inactive

For B3GALT5, what does the deposit list?
TNF reporter robust z-score: 0.44; Outcome: inactive

With LIME1, what was measured?
TNF reporter robust z-score: -1.16; Outcome: inactive

What is on record for LIME1?
TNF reporter robust z-score: -0.96; Outcome: inactive

What is on record for LIME1?
TNF reporter robust z-score: -1.51; Outcome: active

How did the screen score MIXL1?
TNF reporter robust z-score: 0.11; Outcome: inactive

With MIXL1, what does the deposit list?
TNF reporter robust z-score: 2.4; Outcome: inactive

What did the screen give for MIXL1?
TNF reporter robust z-score: 1.44; Outcome: inactive

How did the screen score MIXL1?
TNF reporter robust z-score: 1.29; Outcome: inactive

How did the screen score YTHDF2?
TNF reporter robust z-score: 1.15; Outcome: inactive

With YTHDF2, how do the results read?
TNF reporter robust z-score: 0.09; Outcome: inactive

With YTHDF2, how do the results read?
TNF reporter robust z-score: 0.67; Outcome: inactive

For YTHDF2, what does the deposit list?
TNF reporter robust z-score: 0.14; Outcome: inactive

For KRT77, what was measured?
TNF reporter robust z-score: -0.56; Outcome: inactive

What is on record for KRT77?
TNF reporter robust z-score: -0.05; Outcome: inactive

For KRT77, how do the results read?
TNF reporter robust z-score: 0.77; Outcome: inactive

For KRT77, what was measured?
TNF reporter robust z-score: -0.27; Outcome: inactive

Reprinted from above for reference:
MIXL1 → TNF reporter robust z-score: 1.44; Outcome: inactive
MIXL1 → TNF reporter robust z-score: 1.29; Outcome: inactive
YTHDF2 → TNF reporter robust z-score: 1.15; Outcome: inactive
YTHDF2 → TNF reporter robust z-score: 0.09; Outcome: inactive
YTHDF2 → TNF reporter robust z-score: 0.67; Outcome: inactive
YTHDF2 → TNF reporter robust z-score: 0.14; Outcome: inactive
KRT77 → TNF reporter robust z-score: -0.56; Outcome: inactive
